These are yes or no findings as the source states them, for the method shown. Binding seen in cells or lysates may run through a third protein. Some binding calls cover weakened binding; strength is not graded here.
Columns and labels:
[1] = target: urokinase-type plasminogen activator receptor (uPAR), endogenous in human kidney biopsies (human (endogenous in kidney biopsies)) (UniProt Q03405); assay: proximity ligation; PLA on human kidney biopsy sections of nondiabetic controls and diabetic patients with DKD
[2] = target: urokinase-type plasminogen activator receptor (uPAR), endogenous in HKC-8 cells (human (endogenous in HKC-8)) (UniProt Q03405); assay: co-IP; uPAR immunoprecipitated from HKC-8 cells exposed to purified human FXII (62 nM) with Zn2+ (10 µM) for 24 h or not treated; blots for active integrin β1, active integrin β3 and uPAR
[3] = target: urokinase-type plasminogen activator receptor (uPAR), endogenous in HKC-8 cells (human (endogenous in HKC-8)) (UniProt Q03405); assay: proximity ligation; PLA for uPAR and active integrin β1 in HKC-8 cells (FXII 62 nM with Zn2+ 10 µM for 24 h or not treated) and in F12-null HKC-8 cells transfected with WT-FXII, ∆Fib-II-FXII or empty vector
[4] = target: urokinase-type plasminogen activator receptor (uPAR), endogenous in HKC-8 cells (human (endogenous in HKC-8)) (UniProt Q03405); assay: co-IP; HKC-8 cells exposed to FXII (62 nM; ± 10 µM zinc) in the presence of equimolar (62 nM) or excess molar (120 nM) HK; FXII binding to uPAR determined by coimmunoprecipitation; only the binder purified
[5] = target: T1, urokinase-type plasminogen activator receptor (uPAR), endogenous in mouse kidney (mouse (endogenous in kidney)) (UniProt P35456); assay: proximity ligation; PLA for uPAR and integrin β1 on kidneys of normoglycemic and hyperglycemic WT mice
T1 sequence: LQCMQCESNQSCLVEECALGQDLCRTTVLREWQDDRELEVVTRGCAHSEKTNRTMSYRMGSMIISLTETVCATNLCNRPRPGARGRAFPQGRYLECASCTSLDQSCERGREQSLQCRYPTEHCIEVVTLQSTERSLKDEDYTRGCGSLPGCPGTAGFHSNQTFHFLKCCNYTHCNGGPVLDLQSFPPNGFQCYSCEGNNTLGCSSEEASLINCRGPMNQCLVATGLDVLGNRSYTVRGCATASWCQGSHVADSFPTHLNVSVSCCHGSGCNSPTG

Sequences of proteins named here, by UniProt entry; tags and fusion partners are left off. A change or cut given only in a name is not applied to a line headed by its entry. Residues count along the entry.
UniProt P05556: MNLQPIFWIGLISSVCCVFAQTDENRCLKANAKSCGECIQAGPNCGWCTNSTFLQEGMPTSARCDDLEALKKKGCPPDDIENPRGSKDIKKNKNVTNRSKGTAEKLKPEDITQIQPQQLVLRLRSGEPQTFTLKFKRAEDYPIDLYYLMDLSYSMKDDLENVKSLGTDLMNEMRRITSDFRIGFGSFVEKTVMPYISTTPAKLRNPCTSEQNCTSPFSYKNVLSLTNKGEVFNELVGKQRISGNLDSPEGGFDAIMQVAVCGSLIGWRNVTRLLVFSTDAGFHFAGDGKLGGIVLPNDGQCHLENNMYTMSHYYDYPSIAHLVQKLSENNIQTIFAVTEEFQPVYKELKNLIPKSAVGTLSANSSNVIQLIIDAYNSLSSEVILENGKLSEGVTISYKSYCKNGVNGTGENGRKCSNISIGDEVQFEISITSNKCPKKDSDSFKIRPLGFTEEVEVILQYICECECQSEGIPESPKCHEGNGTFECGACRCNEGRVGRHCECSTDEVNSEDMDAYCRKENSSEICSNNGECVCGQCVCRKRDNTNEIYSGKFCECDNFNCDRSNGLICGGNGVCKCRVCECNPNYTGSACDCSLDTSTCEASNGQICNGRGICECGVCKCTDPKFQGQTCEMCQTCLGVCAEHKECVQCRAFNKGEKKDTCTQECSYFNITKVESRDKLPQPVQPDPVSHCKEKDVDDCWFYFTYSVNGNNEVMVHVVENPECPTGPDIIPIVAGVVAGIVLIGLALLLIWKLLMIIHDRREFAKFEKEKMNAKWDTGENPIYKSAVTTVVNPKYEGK
UniProt P01042, residues 19-644: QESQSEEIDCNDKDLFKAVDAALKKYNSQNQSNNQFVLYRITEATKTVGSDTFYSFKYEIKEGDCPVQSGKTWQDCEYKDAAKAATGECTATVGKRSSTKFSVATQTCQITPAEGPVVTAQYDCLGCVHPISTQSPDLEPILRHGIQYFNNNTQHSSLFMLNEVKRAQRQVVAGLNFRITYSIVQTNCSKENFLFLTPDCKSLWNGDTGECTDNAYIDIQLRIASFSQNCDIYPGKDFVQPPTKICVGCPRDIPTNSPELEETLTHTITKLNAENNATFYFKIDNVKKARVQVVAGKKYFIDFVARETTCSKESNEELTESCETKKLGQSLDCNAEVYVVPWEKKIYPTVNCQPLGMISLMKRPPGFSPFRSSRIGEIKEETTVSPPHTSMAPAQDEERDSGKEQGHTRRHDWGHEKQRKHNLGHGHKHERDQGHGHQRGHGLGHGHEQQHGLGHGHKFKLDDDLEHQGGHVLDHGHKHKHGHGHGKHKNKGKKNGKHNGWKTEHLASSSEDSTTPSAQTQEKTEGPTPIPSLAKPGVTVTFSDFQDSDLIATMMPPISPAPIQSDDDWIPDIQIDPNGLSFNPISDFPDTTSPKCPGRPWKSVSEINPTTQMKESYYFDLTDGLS
UniProt P09055, residues 21-798: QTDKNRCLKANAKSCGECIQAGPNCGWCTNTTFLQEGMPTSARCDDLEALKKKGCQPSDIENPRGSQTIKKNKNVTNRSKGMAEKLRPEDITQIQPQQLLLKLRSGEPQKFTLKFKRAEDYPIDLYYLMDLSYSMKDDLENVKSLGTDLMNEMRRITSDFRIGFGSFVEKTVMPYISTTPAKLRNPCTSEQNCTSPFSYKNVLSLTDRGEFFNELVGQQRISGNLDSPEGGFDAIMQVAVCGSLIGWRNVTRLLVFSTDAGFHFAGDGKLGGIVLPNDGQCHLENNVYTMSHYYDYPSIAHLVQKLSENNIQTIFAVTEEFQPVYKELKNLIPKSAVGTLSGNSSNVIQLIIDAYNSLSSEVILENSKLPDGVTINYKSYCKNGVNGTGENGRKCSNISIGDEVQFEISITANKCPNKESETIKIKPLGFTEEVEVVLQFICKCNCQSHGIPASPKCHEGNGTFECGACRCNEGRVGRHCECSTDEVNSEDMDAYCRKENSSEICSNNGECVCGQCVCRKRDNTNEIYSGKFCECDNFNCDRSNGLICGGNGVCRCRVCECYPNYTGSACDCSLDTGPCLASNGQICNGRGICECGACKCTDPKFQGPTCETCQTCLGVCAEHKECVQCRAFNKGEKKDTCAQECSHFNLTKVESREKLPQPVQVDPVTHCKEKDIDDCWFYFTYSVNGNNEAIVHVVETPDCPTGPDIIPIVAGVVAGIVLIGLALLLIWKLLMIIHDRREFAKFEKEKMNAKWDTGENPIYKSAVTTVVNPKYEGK

[6] = target: T1, urokinase-type plasminogen activator receptor (uPAR), endogenous in mouse kidney (mouse (endogenous in kidney)); assay: proximity ligation; PLA for uPAR and integrin β1 on kidneys of hyperglycemic F12-/- mice
[7] = target: urokinase-type plasminogen activator receptor (uPAR), endogenous in HKC-8 cells (human (endogenous in HKC-8)) (UniProt Q03405); assay: co-IP; uPAR immunoprecipitated from HKC-8 cells exposed to purified human FXII (62 nM) with Zn2+ (10 µM) for 24 h, with and without pretreatment with peptides (300 µM, 1 h); blots for FXII and uPAR; only the binder purified

For “integrin β1, endogenous in human kidney biopsies (from UniProt P05556 21-798) (receptor)”, the binding [1] was “binds”.

In the case of “integrin β1, endogenous in HKC-8 cells (from UniProt P05556 21-798) (receptor)”, the binding [2] is reported as “binds” and the binding [3] is reported as “binds”.

With “high molecular weight kininogen (HK) (from UniProt P01042 19-644)” the binding [4] was “binds”.

With “integrin β1, endogenous in mouse kidney (from UniProt P09055 21-798) (receptor)” the binding [5] was “binds” and the binding [6] was “binds weakly”.

B1: FXII-based peptide HR13 (FN2 domain, residues 54-66) (peptide)
peptide: HRQLYHKCTHKGR
B1 was tested, and the binding [7] was “binds”.

B2: FXII-based peptide PW15 (Kringle domain, residues 275-289) (peptide)
peptide: PWCFVLNRDRLSWEY
For B2, the binding [7] was “binds”.
